Source: the supplement of paper PMC10849652
This is one part of the list.

Protein sequences, listed by entry. Tags and fused reporters are not part of them. Lines headed by an entry give the natural chain unless they say otherwise; changes in a name come on top.
UniProt Q9H1Z4: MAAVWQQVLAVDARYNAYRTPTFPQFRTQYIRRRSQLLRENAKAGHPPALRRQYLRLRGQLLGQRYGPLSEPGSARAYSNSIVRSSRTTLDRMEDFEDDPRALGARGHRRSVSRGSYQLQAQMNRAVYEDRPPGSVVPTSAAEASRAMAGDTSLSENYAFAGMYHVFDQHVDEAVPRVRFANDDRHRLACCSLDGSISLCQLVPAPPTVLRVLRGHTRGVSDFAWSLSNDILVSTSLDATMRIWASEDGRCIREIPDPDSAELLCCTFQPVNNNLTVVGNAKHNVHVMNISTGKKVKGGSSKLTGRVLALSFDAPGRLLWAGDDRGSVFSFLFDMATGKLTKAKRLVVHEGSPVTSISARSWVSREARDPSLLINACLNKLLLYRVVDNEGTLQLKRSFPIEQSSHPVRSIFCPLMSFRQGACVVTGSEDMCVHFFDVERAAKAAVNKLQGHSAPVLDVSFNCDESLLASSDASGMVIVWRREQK
UniProt Q6RFH5: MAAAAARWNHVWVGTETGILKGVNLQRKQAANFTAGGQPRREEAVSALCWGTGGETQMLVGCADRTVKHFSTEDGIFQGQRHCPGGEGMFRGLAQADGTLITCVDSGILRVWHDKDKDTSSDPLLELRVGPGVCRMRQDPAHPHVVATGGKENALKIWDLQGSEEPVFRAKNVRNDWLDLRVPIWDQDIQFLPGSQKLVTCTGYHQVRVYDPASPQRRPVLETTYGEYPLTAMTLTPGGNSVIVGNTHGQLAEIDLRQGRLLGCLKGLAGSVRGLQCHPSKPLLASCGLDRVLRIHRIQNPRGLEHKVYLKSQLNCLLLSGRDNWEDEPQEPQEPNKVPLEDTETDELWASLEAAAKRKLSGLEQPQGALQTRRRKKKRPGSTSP
UniProt Q9Y2W2: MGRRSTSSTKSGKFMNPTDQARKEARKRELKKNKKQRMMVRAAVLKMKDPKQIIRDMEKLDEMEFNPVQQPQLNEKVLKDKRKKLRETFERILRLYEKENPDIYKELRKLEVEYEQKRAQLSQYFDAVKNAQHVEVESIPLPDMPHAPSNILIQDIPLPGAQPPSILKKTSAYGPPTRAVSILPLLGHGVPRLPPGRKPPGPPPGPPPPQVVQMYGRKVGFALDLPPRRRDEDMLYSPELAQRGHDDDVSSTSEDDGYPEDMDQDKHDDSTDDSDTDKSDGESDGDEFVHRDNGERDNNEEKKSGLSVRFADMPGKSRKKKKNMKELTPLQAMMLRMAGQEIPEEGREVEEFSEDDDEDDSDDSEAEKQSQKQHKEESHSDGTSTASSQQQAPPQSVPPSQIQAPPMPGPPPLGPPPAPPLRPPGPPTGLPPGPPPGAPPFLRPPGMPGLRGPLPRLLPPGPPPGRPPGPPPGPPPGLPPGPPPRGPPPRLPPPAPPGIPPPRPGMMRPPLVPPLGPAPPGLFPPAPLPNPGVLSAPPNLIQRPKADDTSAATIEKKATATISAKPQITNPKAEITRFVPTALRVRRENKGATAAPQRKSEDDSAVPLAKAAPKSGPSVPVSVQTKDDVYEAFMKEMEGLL
UniProt Q6UXN9, whole entry, looked up: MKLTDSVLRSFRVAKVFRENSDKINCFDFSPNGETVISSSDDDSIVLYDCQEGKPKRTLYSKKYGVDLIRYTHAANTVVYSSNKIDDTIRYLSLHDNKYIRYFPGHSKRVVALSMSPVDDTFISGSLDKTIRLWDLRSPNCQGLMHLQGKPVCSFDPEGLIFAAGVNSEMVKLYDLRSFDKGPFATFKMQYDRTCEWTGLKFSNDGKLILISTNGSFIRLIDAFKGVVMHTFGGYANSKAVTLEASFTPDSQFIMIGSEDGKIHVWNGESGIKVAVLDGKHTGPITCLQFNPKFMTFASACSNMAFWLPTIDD
UniProt Q8IWB7: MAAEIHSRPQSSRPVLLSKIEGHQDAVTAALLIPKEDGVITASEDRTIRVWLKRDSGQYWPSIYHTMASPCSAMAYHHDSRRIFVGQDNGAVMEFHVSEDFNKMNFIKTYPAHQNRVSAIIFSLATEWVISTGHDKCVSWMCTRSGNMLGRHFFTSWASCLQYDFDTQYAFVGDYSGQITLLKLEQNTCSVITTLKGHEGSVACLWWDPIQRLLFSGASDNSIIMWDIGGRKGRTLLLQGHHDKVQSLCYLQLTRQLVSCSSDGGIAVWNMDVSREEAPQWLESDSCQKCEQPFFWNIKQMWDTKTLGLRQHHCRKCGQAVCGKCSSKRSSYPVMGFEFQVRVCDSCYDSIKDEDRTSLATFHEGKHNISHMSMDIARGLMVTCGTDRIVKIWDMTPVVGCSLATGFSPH
UniProt Q9H9H4: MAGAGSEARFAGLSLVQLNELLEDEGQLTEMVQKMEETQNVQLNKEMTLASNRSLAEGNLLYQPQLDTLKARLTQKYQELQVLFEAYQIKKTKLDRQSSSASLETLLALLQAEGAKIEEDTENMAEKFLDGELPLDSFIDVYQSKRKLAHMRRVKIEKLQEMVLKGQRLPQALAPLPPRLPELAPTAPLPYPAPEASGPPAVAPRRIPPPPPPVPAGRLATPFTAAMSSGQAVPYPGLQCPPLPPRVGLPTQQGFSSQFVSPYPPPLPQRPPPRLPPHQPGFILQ
UniProt O00401, whole entry, looked up: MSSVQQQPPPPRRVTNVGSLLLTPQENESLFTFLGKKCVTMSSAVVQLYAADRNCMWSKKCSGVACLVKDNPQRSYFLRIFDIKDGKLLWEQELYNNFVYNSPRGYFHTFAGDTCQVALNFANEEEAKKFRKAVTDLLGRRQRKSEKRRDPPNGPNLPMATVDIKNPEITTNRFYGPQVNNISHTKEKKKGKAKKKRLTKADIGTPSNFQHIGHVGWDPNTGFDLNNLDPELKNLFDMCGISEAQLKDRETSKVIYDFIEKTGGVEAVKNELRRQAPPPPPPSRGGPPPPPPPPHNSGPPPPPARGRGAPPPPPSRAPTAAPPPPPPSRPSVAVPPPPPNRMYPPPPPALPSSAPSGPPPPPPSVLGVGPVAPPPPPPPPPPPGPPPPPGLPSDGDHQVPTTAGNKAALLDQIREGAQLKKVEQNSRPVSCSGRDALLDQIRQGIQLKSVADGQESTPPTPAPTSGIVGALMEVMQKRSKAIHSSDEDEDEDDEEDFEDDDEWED
UniProt Q6P4I2: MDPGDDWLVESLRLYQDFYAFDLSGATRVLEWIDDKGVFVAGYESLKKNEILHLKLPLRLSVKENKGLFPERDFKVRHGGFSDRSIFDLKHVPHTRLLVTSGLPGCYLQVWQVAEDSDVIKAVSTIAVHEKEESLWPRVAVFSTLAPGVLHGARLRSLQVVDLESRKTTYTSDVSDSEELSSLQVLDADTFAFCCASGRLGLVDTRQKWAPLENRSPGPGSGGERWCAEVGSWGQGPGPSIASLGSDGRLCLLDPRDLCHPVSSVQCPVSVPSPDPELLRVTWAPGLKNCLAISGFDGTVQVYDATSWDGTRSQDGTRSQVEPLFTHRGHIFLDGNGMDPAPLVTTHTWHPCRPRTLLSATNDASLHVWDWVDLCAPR
UniProt Q2M389: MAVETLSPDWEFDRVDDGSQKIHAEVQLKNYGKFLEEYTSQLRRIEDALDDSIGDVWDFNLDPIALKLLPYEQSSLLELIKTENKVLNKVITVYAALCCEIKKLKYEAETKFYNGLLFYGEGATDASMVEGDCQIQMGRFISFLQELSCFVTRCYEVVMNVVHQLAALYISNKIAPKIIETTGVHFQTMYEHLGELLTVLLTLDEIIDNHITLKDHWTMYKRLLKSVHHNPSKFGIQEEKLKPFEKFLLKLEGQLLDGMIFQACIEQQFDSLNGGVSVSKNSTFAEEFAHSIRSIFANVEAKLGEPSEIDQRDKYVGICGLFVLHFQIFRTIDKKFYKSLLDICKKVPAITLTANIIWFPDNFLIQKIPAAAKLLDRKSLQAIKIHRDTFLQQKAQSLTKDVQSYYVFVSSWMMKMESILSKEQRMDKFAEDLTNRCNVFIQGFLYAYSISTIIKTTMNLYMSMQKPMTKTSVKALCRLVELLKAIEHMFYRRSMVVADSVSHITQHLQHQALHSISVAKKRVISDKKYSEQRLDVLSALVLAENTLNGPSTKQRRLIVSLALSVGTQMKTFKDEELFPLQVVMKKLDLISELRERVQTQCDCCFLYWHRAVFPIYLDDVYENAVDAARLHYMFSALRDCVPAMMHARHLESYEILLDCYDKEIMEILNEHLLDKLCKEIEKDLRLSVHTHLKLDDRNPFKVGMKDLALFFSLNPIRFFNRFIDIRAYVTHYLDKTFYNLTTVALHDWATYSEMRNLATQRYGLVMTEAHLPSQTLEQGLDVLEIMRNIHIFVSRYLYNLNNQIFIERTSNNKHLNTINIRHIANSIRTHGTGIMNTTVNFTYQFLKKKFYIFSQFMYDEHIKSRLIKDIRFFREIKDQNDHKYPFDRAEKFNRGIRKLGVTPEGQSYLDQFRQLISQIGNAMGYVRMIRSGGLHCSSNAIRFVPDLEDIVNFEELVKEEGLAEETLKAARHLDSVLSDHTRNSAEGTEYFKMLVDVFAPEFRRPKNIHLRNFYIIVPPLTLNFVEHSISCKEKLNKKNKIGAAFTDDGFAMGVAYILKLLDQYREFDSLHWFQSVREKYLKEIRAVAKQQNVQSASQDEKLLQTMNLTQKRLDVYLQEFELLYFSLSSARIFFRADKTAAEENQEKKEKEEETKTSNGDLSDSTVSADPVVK
UniProt Q9Y484: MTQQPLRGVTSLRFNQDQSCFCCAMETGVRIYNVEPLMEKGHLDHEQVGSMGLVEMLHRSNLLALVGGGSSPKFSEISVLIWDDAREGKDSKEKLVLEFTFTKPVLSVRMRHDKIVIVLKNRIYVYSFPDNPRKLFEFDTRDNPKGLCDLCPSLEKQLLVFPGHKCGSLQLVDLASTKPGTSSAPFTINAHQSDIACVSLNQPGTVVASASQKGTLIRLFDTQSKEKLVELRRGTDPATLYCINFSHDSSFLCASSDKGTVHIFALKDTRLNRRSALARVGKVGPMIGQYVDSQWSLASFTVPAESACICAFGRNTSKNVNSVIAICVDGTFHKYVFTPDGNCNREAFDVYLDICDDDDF
UniProt A6NGB9: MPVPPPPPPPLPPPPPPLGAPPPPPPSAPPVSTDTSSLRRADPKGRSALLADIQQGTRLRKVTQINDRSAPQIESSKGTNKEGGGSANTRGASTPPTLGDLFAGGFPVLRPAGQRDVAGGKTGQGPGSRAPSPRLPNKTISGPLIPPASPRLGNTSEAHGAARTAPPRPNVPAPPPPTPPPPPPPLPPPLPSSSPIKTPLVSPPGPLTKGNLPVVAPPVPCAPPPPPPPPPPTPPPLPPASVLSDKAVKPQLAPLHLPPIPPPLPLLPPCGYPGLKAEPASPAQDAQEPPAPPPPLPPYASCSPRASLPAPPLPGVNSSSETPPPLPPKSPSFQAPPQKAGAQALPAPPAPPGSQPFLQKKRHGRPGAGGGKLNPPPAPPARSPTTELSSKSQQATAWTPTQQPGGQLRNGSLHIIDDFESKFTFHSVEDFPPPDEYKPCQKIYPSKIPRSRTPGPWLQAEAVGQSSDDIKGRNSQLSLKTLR
UniProt Q92558: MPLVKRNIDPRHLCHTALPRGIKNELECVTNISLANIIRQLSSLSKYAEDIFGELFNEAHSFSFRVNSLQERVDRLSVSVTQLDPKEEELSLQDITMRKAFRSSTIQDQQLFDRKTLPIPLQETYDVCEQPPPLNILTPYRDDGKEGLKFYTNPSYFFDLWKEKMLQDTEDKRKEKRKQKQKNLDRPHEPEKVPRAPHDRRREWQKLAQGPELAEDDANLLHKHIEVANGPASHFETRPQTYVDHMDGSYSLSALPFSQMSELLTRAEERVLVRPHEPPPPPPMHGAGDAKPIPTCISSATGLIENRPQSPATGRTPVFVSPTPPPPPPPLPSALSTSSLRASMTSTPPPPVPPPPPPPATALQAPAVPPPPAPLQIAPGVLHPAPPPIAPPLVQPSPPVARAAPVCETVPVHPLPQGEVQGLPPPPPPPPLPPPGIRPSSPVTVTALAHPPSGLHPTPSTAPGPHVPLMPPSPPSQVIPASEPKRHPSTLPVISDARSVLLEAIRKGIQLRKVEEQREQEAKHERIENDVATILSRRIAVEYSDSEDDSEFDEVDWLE
UniProt Q4G0F5, whole entry, looked up: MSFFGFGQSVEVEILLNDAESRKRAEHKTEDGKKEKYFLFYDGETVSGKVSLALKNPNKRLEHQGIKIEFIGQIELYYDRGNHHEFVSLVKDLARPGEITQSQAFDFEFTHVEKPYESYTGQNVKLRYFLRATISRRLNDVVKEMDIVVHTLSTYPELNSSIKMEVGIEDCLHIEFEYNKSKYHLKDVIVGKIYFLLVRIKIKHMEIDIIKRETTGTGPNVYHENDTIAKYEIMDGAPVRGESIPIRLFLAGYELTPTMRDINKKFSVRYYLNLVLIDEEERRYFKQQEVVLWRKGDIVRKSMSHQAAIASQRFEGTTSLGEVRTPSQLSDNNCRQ

Compound: CC1=C(C(CC(=O)N1)C2=CC=C(C=C2)C(F)(F)F)C(=O)NC3=C(C=C4C(=C3)C=NN4)F
Experiment: log2 fold change, soluble protein after heating vs DMSO (PISA); higher = thermal stabilisation; K562 cells, 10 uM, 30 min; active = over 0.2 and 3.5 SD of the protein, either way, in both replicates (recomputed)
In short: (§1)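 Aliquots of K562 cells (2×10^6 cells/mL) treated with 10 μM compound for 30 min were heated for 3 min over 48°C-58°C. After pooling and extraction in PBS with 0.5% NP-40 at 4°C, soluble protein from a 21,000xg, 90 min spin was quantified by TMTpro 16plex LC-MS/MS with channel sums equalised. Thermal stability is expressed against control samples, from duplicates, as a log2 fold change.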

Row | Target | log2 fold change
1 | WDR5 (UniProt P61964) | inactive: 0.055
2 | WDR6 (UniProt Q9NNW5) | inactive: 0.012
3 | WDR13 (UniProt Q9H1Z4) | inactive: 0.095
4 | VPS4B (UniProt O75351) | inactive: -0.007
5 | WDR74 (UniProt Q6RFH5) | inactive: -0.068
6 | WDR36 (UniProt Q8NI36) | inactive: -0.055
7 | VPS13C (UniProt Q709C8) | inactive: 0
8 | WIPF2 (UniProt Q8TF74) | inactive: 0.025
9 | VPS36 (UniProt Q86VN1) | inactive: -0.012
10 | WDR70 (UniProt Q9NW82) | inactive: -0.028
11 | VPS26A (UniProt O75436) | inactive: -0.033
12 | VPS29 isoform 2 (UniProt Q9UBQ0) | inactive: 0.031
13 | WBP11 (UniProt Q9Y2W2) | inactive: 0.016
14 | WDR26, A0A499FIZ0 | inactive: 0.026
15 | VPS45 (UniProt Q9NRW7) | inactive: 0.014
16 | WDR82 (UniProt Q6UXN9) | inactive: -0.013
17 | WDFY1 (UniProt Q8IWB7) | inactive: 0.022

Row | Target | log2 fold change
18 | VPS37B (UniProt Q9H9H4) | inactive: 0.036
19 | VWDE (UniProt Q8N2E2) | inactive: 0.057
20 | VWA5A (UniProt O00534) | inactive: -0.114
21 | VPS13A (UniProt Q96RL7) | inactive: -0.001
22 | WASL (UniProt O00401) | inactive: -0.061
23 | WDR73 (UniProt Q6P4I2) | inactive: 0.032
24 | WASHC4 (UniProt Q2M389) | inactive: 0.075
25 | VPS35 (UniProt Q96QK1) | inactive: 0.026
26 | WDR45 (UniProt Q9Y484) | inactive: -0.001
27 | VPS4A (UniProt Q9UN37) | inactive: 0.006
28 | WASF2 (UniProt Q9Y6W5) | inactive: 0.042
29 | WRAP53 (UniProt Q9BUR4) | inactive: -0.075
30 | WDR77 (UniProt Q9BQA1) | inactive: -0.008
31 | WIPF3 (UniProt A6NGB9) | inactive: -0.022
32 | WASF1 (UniProt Q92558) | inactive: 0.029
33 | VPS26B (UniProt Q4G0F5) | inactive: -0.04

Compound: CC1=C(C2=C(C=C1)C(=O)C3=CC=CC=C3N2CCCN)C
Experiment: as above
In short: as §1

Row | Target | log2 fold change
34 | WDR5 (UniProt P61964) | inactive: -0.013
35 | WDR6 (UniProt Q9NNW5) | inactive: -0.023
36 | WDR13 (UniProt Q9H1Z4) | inactive: 0.032
37 | VPS4B (UniProt O75351) | inactive: 0.054
38 | WDR74 (UniProt Q6RFH5) | inactive: 0.027
39 | WDR36 (UniProt Q8NI36) | inactive: 0.189
40 | VPS13C (UniProt Q709C8) | inactive: 0.048
41 | WIPF2 (UniProt Q8TF74) | inactive: -0.055
42 | VPS36 (UniProt Q86VN1) | inactive: 0.056
43 | WDR70 (UniProt Q9NW82) | inactive: 0.04
44 | VPS26A (UniProt O75436) | inactive: 0.02
45 | VPS29 isoform 2 (UniProt Q9UBQ0) | inactive: -0.023
46 | WBP11 (UniProt Q9Y2W2) | inactive: 0.003
47 | WDR26, A0A499FIZ0 | inactive: -0.111
48 | VPS45 (UniProt Q9NRW7) | inactive: 0.062
49 | WDR82 (UniProt Q6UXN9) | inactive: 0.031
50 | WDFY1 (UniProt Q8IWB7) | inactive: -0.015

Row | Target | log2 fold change
51 | VPS37B (UniProt Q9H9H4) | inactive: 0.082
52 | VWDE (UniProt Q8N2E2) | inactive: -0.049
53 | VWA5A (UniProt O00534) | inactive: -0.085
54 | VPS13A (UniProt Q96RL7) | inactive: 0.037
55 | WASL (UniProt O00401) | inactive: 0.02
56 | WDR73 (UniProt Q6P4I2) | inactive: 0.028
57 | WASHC4 (UniProt Q2M389) | inactive: 0.041
58 | VPS35 (UniProt Q96QK1) | inactive: 0.008
59 | WDR45 (UniProt Q9Y484) | inactive: 0.051
60 | VPS4A (UniProt Q9UN37) | inactive: 0.027
61 | WASF2 (UniProt Q9Y6W5) | inactive: -0.082
62 | WRAP53 (UniProt Q9BUR4) | inactive: -0.012
63 | WDR77 (UniProt Q9BQA1) | inactive: 0.091
64 | WIPF3 (UniProt A6NGB9) | inactive: 0.049
65 | WASF1 (UniProt Q92558) | inactive: 0.034
66 | VPS26B (UniProt Q4G0F5) | inactive: 0
